Source: publication PMC6751655

By UniProt entry, the sequences of proteins in these tests, tags left out. Where a name states a change or a piece, a line headed by the entry shows the natural chain unless it says otherwise.
UniProt P61960: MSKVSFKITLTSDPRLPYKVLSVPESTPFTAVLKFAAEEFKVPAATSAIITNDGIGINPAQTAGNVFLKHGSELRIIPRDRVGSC
UniProt P12830: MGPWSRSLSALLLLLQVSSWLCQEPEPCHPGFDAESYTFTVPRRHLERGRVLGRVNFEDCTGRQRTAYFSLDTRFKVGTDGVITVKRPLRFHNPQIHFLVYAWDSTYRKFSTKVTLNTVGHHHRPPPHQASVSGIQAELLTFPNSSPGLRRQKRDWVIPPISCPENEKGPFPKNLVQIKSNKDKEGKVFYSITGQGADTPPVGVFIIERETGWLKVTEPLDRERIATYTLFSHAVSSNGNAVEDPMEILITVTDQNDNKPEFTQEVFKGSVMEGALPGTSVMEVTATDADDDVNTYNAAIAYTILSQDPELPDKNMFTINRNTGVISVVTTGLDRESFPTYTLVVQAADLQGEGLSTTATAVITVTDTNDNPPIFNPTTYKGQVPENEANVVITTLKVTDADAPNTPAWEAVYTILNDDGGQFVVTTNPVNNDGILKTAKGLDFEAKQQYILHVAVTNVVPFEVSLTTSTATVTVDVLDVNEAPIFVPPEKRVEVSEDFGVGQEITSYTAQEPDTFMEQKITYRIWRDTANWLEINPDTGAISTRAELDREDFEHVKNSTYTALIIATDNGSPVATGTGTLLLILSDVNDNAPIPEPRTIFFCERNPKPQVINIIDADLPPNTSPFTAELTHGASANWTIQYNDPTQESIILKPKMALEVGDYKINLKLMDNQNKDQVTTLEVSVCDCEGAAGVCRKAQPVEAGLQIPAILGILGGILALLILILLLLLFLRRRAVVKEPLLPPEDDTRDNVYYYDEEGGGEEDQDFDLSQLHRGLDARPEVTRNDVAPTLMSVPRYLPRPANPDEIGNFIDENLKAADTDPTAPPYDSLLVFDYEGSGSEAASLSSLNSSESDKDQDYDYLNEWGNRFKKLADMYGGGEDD
UniProt P19022: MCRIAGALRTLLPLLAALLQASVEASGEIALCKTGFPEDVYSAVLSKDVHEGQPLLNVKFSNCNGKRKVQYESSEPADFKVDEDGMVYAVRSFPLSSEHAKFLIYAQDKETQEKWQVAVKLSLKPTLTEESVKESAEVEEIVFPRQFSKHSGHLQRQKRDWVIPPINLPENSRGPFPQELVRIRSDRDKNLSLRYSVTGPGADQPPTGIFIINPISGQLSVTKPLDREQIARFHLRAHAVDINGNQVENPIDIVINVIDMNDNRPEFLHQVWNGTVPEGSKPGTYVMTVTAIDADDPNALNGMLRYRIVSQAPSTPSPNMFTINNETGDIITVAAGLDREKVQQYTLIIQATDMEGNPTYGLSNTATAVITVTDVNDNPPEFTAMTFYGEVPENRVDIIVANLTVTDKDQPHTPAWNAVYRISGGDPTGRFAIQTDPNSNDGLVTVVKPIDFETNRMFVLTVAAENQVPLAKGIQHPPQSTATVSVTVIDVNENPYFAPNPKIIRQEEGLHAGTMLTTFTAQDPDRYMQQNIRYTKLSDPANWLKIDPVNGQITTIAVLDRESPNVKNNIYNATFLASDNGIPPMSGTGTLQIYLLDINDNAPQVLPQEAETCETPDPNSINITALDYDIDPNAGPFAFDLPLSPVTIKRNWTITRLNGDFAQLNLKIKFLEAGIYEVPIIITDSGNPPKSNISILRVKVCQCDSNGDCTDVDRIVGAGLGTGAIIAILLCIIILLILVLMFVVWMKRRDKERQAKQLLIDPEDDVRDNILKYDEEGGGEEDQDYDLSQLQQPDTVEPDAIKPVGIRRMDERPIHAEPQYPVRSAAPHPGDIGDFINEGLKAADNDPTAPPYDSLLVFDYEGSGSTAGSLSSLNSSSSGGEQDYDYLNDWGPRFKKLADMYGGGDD

Target: Ubiquitin-fold modifier 1 (human (endogenous in AGS)) (UniProt P61960)
Test: co-IP; immunoprecipitation with UFM1 antibody from lysates of AGS cells (Figure S4A) or stable AGS cells (Fig. 5a, down panel), overnight at 4 °C; Protein A-Sepharose beads; Western blot

In the case of E-cadherin (from UniProt P12830), the binding is reported as “no binding”.

N-cadherin (from UniProt P19022) was tested, and the binding was “no binding”.

No constants are given. Whether binding was seen depends on the method and setting. In cells and extracts the contact can be indirect.
